Measured values taken from the supplement of paper PMC10849652.
Some of the results follow.

Protein sequences, listed by entry. Tags and fused reporters are not part of them. Lines headed by an entry give the natural chain unless they say otherwise; changes in a name come on top.
UniProt Q9H2H8: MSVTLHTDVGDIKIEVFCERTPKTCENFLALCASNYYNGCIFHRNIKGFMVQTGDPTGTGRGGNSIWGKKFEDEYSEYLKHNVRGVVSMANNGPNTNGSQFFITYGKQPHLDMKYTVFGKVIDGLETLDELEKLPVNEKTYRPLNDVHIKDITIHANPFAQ
UniProt Q9H2U2: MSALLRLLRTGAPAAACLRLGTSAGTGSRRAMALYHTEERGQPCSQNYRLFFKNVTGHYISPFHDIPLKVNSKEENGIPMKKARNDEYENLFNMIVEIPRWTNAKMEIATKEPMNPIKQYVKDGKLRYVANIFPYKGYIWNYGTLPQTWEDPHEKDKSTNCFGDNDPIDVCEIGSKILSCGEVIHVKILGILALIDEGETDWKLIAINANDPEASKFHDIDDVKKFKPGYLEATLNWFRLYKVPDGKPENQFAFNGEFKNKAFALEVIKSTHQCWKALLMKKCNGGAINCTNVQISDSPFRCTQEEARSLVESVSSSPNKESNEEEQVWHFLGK
UniProt Q8IYS1: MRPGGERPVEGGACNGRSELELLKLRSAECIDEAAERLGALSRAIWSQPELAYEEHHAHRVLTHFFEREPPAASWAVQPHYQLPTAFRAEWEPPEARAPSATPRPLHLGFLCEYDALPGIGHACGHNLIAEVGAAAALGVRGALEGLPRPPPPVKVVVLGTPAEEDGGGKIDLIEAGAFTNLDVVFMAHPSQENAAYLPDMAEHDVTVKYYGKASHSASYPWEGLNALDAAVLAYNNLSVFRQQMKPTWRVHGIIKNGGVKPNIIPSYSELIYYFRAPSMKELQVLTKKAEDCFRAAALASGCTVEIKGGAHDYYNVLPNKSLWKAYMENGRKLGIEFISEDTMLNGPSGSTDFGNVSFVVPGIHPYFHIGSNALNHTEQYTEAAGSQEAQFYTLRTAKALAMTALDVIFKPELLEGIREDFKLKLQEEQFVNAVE
UniProt Q13427: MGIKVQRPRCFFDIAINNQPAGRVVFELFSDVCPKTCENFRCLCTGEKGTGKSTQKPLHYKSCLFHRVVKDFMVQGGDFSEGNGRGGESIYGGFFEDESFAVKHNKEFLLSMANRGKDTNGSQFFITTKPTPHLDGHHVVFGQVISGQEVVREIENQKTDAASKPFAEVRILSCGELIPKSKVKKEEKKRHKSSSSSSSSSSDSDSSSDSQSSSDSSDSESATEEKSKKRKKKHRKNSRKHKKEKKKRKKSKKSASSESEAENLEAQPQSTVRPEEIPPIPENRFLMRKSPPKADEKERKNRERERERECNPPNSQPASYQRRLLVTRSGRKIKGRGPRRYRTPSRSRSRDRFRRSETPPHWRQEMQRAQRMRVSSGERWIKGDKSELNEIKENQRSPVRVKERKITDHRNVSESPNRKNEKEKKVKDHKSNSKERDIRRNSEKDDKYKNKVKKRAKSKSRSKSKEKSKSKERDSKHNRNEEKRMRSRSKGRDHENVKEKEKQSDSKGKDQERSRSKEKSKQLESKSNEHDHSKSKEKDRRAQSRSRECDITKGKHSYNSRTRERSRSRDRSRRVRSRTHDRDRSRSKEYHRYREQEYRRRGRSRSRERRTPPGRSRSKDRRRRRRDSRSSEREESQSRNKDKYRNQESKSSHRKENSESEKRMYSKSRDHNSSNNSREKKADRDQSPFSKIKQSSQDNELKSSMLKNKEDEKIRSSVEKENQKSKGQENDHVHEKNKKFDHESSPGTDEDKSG
UniProt Q07864, whole entry, looked up: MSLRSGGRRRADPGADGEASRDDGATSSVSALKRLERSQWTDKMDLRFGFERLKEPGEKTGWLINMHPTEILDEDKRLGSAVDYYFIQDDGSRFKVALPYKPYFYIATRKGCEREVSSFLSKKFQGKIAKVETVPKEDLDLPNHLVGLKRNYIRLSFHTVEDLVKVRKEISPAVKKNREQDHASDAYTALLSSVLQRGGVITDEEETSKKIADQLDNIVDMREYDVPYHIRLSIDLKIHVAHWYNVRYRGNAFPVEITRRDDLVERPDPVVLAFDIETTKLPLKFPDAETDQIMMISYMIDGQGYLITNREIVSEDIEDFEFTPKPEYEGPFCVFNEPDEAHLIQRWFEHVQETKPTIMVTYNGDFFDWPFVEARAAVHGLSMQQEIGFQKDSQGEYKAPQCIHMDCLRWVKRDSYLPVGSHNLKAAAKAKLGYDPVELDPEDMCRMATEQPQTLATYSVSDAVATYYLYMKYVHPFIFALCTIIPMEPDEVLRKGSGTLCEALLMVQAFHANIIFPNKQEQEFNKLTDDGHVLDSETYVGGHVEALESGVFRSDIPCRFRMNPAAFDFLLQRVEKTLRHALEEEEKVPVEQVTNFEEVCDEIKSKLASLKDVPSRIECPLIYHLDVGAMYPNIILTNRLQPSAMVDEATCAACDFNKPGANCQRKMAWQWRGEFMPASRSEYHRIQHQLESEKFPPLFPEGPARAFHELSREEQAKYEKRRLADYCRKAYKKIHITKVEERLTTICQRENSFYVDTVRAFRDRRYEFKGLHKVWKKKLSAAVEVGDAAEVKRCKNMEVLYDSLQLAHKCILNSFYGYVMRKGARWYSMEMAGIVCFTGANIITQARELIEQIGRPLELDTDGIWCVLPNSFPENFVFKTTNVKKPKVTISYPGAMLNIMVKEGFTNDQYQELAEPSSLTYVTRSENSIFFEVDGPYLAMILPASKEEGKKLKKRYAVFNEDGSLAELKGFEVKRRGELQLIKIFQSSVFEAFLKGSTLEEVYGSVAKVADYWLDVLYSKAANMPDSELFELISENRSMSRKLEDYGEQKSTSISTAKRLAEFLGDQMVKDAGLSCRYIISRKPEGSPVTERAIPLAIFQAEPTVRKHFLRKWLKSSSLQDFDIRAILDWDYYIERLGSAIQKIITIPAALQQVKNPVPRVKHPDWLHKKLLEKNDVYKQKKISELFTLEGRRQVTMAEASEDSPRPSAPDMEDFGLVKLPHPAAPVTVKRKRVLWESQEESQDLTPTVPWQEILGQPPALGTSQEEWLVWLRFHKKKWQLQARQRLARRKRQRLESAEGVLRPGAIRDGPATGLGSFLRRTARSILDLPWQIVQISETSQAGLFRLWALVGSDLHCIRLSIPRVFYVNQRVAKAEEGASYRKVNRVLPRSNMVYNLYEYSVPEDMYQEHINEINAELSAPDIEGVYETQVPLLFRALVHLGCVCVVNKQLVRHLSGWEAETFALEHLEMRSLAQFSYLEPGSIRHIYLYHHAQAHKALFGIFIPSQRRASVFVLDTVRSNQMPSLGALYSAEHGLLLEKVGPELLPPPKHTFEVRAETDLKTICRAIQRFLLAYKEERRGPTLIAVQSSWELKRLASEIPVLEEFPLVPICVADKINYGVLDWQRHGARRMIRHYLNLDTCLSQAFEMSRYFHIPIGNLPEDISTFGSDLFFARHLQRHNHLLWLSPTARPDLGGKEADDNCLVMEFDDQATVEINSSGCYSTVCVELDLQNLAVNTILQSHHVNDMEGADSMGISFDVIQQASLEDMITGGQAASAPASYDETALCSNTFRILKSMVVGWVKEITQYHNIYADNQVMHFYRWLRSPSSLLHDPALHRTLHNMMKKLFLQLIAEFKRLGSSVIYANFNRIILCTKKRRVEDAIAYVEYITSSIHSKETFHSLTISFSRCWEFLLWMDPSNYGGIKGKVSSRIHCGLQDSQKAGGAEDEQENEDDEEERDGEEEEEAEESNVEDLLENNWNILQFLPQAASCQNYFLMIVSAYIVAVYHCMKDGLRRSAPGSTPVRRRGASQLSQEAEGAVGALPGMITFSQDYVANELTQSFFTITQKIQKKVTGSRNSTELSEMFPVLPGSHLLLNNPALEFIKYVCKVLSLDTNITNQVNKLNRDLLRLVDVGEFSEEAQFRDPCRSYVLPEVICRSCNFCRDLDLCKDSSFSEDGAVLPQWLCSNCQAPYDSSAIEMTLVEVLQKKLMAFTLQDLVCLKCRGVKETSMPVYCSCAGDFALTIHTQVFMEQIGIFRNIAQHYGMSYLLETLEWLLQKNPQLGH
UniProt O00592: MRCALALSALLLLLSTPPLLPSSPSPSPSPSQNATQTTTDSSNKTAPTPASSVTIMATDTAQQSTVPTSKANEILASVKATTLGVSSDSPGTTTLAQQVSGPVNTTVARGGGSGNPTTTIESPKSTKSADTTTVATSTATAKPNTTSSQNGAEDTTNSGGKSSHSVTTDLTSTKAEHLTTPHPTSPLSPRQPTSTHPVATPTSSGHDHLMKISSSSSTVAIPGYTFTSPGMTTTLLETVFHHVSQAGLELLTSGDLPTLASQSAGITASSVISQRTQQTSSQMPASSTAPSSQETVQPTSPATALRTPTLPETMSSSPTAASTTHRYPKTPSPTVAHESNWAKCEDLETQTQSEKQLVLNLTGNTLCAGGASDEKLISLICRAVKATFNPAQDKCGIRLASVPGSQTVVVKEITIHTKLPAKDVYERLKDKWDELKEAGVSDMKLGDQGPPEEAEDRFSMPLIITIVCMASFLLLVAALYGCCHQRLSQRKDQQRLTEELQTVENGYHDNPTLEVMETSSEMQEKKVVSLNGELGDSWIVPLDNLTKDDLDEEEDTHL
UniProt Q6T4P5: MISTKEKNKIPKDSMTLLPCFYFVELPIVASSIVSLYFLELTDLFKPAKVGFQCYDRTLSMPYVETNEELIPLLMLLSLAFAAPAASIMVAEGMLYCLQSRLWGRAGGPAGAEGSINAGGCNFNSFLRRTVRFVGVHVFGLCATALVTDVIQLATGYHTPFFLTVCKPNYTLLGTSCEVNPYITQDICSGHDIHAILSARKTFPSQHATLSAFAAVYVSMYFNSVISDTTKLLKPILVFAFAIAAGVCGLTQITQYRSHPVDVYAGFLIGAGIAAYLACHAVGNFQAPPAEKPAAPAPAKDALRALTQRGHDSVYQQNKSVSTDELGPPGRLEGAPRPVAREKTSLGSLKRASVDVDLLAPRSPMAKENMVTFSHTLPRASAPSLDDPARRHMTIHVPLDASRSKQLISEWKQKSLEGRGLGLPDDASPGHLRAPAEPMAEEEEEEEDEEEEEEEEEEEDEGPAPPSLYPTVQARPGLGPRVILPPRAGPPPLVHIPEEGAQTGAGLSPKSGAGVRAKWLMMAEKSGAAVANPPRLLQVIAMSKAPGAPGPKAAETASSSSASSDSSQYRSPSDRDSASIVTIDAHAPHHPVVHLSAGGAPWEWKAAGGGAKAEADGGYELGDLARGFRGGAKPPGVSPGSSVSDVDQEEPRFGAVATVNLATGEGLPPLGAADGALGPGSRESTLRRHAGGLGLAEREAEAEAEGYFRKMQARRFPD
UniProt Q9HBL7: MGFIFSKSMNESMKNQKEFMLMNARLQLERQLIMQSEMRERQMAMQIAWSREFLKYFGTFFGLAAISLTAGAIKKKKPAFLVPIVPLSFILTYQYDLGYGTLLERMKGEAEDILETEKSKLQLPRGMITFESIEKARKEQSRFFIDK
UniProt Q13794: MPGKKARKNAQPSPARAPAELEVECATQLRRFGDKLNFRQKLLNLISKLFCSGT
UniProt Q9NUX5: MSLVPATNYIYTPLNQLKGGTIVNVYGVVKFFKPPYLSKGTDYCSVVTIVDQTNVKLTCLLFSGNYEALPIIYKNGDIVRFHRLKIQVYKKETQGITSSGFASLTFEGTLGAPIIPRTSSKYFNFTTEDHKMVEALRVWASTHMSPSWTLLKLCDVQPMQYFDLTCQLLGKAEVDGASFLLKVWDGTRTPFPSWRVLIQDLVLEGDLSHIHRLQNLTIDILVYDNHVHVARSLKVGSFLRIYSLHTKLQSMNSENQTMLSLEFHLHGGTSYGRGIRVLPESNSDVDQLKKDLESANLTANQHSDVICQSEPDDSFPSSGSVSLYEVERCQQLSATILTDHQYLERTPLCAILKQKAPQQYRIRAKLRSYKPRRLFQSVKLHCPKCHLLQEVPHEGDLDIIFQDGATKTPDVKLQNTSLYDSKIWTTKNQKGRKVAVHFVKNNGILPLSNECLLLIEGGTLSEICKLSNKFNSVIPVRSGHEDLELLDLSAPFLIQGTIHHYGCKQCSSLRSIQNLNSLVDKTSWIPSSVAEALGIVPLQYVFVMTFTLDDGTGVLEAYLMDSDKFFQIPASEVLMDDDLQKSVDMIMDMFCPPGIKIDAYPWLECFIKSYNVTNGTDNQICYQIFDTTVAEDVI
UniProt Q9BX97: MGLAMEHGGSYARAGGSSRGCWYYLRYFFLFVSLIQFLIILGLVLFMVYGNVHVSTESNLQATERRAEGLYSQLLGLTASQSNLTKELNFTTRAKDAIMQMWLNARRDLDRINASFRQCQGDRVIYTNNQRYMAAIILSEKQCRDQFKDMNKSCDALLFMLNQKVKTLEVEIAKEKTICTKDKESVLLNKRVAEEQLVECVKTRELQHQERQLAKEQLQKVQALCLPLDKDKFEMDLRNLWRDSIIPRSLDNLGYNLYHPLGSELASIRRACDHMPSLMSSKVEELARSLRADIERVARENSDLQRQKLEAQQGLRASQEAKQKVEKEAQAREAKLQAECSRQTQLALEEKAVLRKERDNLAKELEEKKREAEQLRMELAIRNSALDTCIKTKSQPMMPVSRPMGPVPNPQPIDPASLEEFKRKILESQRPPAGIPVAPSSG

Legend:
Test in all cases: log2 fold change, soluble protein after heating vs DMSO (PISA); higher = thermal stabilisation; K562 cells, 10 uM, 30 min; active = over 0.2 and 3.5 SD of the protein, either way, in both replicates (recomputed)
[1] = compound: COC1=CC=C(C=C1)CN2C=CC3=C2C=C(C=C3)C(=O)NO
Summary of the method: (§1)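 K562 cells at 2×10^6 cells/mL were exposed to 10 μM compound for 30 min, then aliquots were heated for 3 min across 48°C-58°C, pooled, and extracted in PBS containing 0.5% NP-40 at 4°C. The supernatant after 21,000xg for 90 min was taken as soluble protein and measured by TMTpro 16plex LC-MS/MS with channel sums equalised. Thermal stability is reported relative to control samples, with values from duplicates. Fold changes are given on a log2 scale.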

zotarolimus = compound: CO[C@H]1C[C@@H]2CC[C@@H](C)[C@@](O)(O2)C(=O)C(=O)N2CCCC[C@H]2C(=O)O[C@H]([C@H](C)C[C@@H]2CC[C@H](n3cnnn3)[C@H](OC)C2)CC(=O)[C@H](C)/C=C(\C)[C@@H](O)[C@@H](OC)C(=O)[C@H](C)C[C@H](C)/C=C/C=C/C=C/1C [zotarolimus]
Summary of the method: as §1

idasanutlin = compound: COc1cc(C(=O)O)ccc1NC(=O)[C@@H]1N[C@@H](CC(C)(C)C)[C@](C#N)(c2ccc(Cl)cc2F)[C@H]1c1cccc(Cl)c1F [idasanutlin]
Summary of the method: as §1

alisertib = compound: COc1cc(Nc2ncc3c(n2)-c2ccc(Cl)cc2C(c2c(F)cccc2OC)=NC3)ccc1C(=O)O [alisertib]
Summary of the method: as §1

[2] = compound: COc1cc2nc(-c3cc(F)ccc3O)nc(N[C@@H]3CNC[C@H]3C(C)(C)O)c2cc1OC
Summary of the method: as §1

gefitinib = compound: COc1cc2ncnc(Nc3ccc(F)c(Cl)c3)c2cc1OCCCN1CCOCC1 [gefitinib]
Summary of the method: as §1

[3] = compound: COc1cccc2cc(-c3nc([C@H]4CC[C@H](C(=O)O)CC4)n4ncnc(N)c34)[nH]c12
Summary of the method: as §1

lapatinib = compound: CS(=O)(=O)CCNCc1ccc(-c2ccc3ncnc(Nc4ccc(OCc5cccc(F)c5)c(Cl)c4)c3c2)o1 [lapatinib]
Summary of the method: as §1

filanesib = compound: CON(C)C(=O)N1N=C(c2cc(F)ccc2F)S[C@@]1(CCCN)c1ccccc1 [filanesib]
Summary of the method: as §1

pictilisib = compound: CS(=O)(=O)N1CCN(Cc2cc3nc(-c4cccc5[nH]ncc45)nc(N4CCOCC4)c3s2)CC1 [pictilisib]
Summary of the method: as §1

Measured: log2 fold change

PNPLA6 (UniProt Q8IY17)
inactive: [1] -0.008 | zotarolimus 0.206 | idasanutlin -0.019 | alisertib 0.019 | [2] -0.355 | gefitinib 0.034 | [3] -0.041 | lapatinib 0.095

POGLUT2 (UniProt Q6UW63)
inactive: [1] -0.055 | filanesib 0.028 | zotarolimus 0.052 | idasanutlin 0.087 | alisertib -0.036 | [2] 0.019 | gefitinib -0.016 | [3] 0.053 | lapatinib 0.071 | pictilisib 0.051

PPIL3 isoform 2 (UniProt Q9H2H8)
inactive: [1] 0.301 | filanesib 0.027 | idasanutlin 0.124 | [2] 0.206 | gefitinib -0.12 | lapatinib 0.003 | pictilisib 0.032

PPA2 (UniProt Q9H2U2)
inactive: [1] 0.028 | filanesib -0.071 | zotarolimus -0.003 | idasanutlin -0.047 | alisertib 0.011 | [2] 0.068 | gefitinib -0.004 | [3] 0.04 | lapatinib -0.041 | pictilisib 0.102

POLDIP2 (UniProt Q9Y2S7)
inactive: [1] -0.004 | filanesib -0.009 | zotarolimus -0.005 | idasanutlin -0.045 | alisertib -0.097 | [2] 0.012 | gefitinib 0.076 | [3] 0.009 | lapatinib -0.008 | pictilisib 0.015

POLR2G (UniProt P62487)
inactive: [1] 0.039 | filanesib -0.014 | zotarolimus -0.046 | idasanutlin -0.006 | alisertib -0.054 | [2] 0.127 | gefitinib 0.001 | [3] 0.106 | lapatinib -0.022 | pictilisib 0.109

POP5 (UniProt Q969H6)
inactive: [1] -0.004 | filanesib 0.05 | zotarolimus -0.039 | idasanutlin 0.041 | alisertib -0.105 | [2] -0.113 | gefitinib 0.163 | [3] 0.057 | lapatinib 0.025 | pictilisib -0.126

POM121C (UniProt A8CG34)
inactive: [1] 0.023 | filanesib 0.024 | idasanutlin 0.487 | alisertib 0.198 | gefitinib 0.135 | [3] 0.165

PML (UniProt P29590)
inactive: [1] -0.043 | filanesib 0.014 | zotarolimus 0.041 | idasanutlin 0.003 | alisertib -0.022 | [2] -0.026 | gefitinib -0.015 | [3] -0.081 | lapatinib 0.024 | pictilisib 0.119

POC1A (UniProt Q8NBT0)
inactive: [1] -0.289 | zotarolimus -0.058 | idasanutlin 0.095 | alisertib -0.073 | [3] 0.304

POLR1E isoform 1 (UniProt Q9GZS1)
inactive: idasanutlin 0.156 | alisertib 0.036 | [2] -0.095 | [3] -0.206 | lapatinib 0.154

PORCN (UniProt Q9H237)
inactive: zotarolimus 0.033

PM20D2 (UniProt Q8IYS1)
inactive: filanesib -0.48

PLEKHJ1 (UniProt Q9NW61)
inactive: zotarolimus 0.039 | [2] -0.089 | lapatinib -0.076

POF1B isoform 1 (UniProt Q8WVV4)
inactive: alisertib 1.92 | gefitinib 0.321 | [3] -0.01

PPHLN1 isoform 3 (UniProt Q8NEY8)
inactive: zotarolimus 0.082

PPIG (UniProt Q13427)
inactive: [1] 0.04 | alisertib 0.065 | [2] 0.129 | [3] 0.049 | lapatinib -0.079

PMS2CL (UniProt Q68D20)
inactive: alisertib -0.254 | gefitinib 0.033 | [3] -0.099

POLB (UniProt P06746)
inactive: filanesib -0.155 | zotarolimus 0.215 | [2] 0.037 | gefitinib 0.199 | lapatinib -0.006 | pictilisib -0.022

POLE2 (UniProt P56282)
inactive: [1] -0.114 | pictilisib 0.086

PPHLN1 (UniProt Q8NEY8)
inactive: [1] -0.099 | alisertib -0.024 | [2] 0.071 | [3] 0.022 | lapatinib -0.013 | pictilisib 0.057

PLIN3 isoform 2 (UniProt O60664)
inactive: filanesib 0.226 | idasanutlin 0.279 | alisertib 0.085 | [2] -0.02 | [3] 0.039 | lapatinib -0.058

PMVK (UniProt Q15126)
inactive: filanesib 0.198 | zotarolimus 0.083 | idasanutlin 0.064 | alisertib 0.047 | gefitinib -0.189 | [3] -0.144 | pictilisib 0.073

PNMT (UniProt P11086)
inactive: filanesib -0.251 | zotarolimus 0.031 | idasanutlin -0.031 | [2] 0.21 | lapatinib -0.003

POLE (UniProt Q07864)
inactive: zotarolimus 0 | pictilisib -0.042

PODXL (UniProt O00592)
inactive: pictilisib 0.865

PLPPR3 isoform 3 (UniProt Q6T4P5)
inactive: zotarolimus 0.134 | pictilisib 0.073

POLG, A0A3B3IS91
inactive: alisertib -0.258 | [3] -0.271

PPFIA3 (UniProt O75145)
inactive: zotarolimus -0.01

PPIA isoform 2 (UniProt P62937)
inactive: zotarolimus -0.055 | idasanutlin -0.458 | alisertib -0.381 | [2] 0.173 | gefitinib -0.008 | [3] -0.033 | lapatinib -0.162 | pictilisib -0.007

PLOD2 isoform 2 (UniProt O00469)
inactive: [1] -0.466 | alisertib -0.072 | [2] 0.216 | [3] 0.045 | lapatinib -0.098

PLGRKT (UniProt Q9HBL7)
inactive: filanesib 0.147 | zotarolimus 0.093 | idasanutlin 0.071 | alisertib 0.116 | gefitinib -0.017 | [3] 0.069 | pictilisib -0.001

PLSCR3 (UniProt Q9NRY6)
inactive: zotarolimus 0.024 | idasanutlin 0.144 | gefitinib 0.086 | pictilisib 0.087

PMAIP1 (UniProt Q13794)
inactive: filanesib 0.053 | zotarolimus 0.236 | idasanutlin 0.143 | alisertib -0.059 | [2] -0.433 | gefitinib -0.363 | [3] 0.046 | lapatinib -0.095 | pictilisib 0.037

PLXND1 (UniProt Q9Y4D7)
inactive: [1] 0.292 | idasanutlin -0.168 | alisertib 0.002 | [3] 0.069

PLXNB1 (UniProt O43157)
inactive: filanesib 0.076 | idasanutlin -0.17

POT1 (UniProt Q9NUX5)
inactive: filanesib 0.288 | alisertib 0.329 | gefitinib 0.063 | [3] 0.282

PLVAP (UniProt Q9BX97)
inactive: filanesib -0.078 | zotarolimus -0.424 | idasanutlin -0.11 | alisertib -0.092 | [2] 0.116 | gefitinib -0.011 | [3] 0.006 | lapatinib 0.036 | pictilisib 0.012

PPM1B isoform 2 (UniProt O75688)
inactive: alisertib -0.065 | [3] 0.034

POLQ (UniProt O75417)
inactive: alisertib 0.052 | gefitinib 0.016 | [3] 0.206 | pictilisib 0.225

POLR3GL (UniProt Q9BT43)
inactive: filanesib 0.024 | alisertib 0.021 | [3] 0.111

POLR2L (UniProt P62875)
inactive: filanesib 0.085 | zotarolimus 0.035 | idasanutlin 0.041 | alisertib -0.006 | [2] 0.122 | gefitinib -0.05 | [3] -0.001 | lapatinib 0.066 | pictilisib 0.027

POLR2J (UniProt P52435)
inactive: zotarolimus -0.108 | idasanutlin -0.148 | alisertib 0.642 | gefitinib 0.001 | [3] -0.026 | pictilisib 0.006

Taken from the entries so far (nine entries):
PLGRKT (UniProt Q9HBL7)
inactive: filanesib 0.147 | zotarolimus 0.093 | idasanutlin 0.071 | alisertib 0.116 | gefitinib -0.017 | [3] 0.069 | pictilisib -0.001

PLSCR3 (UniProt Q9NRY6)
inactive: zotarolimus 0.024 | idasanutlin 0.144 | gefitinib 0.086 | pictilisib 0.087

PMAIP1 (UniProt Q13794)
inactive: filanesib 0.053 | zotarolimus 0.236 | idasanutlin 0.143 | alisertib -0.059 | [2] -0.433 | gefitinib -0.363 | [3] 0.046 | lapatinib -0.095 | pictilisib 0.037

PLXND1 (UniProt Q9Y4D7)
inactive: [1] 0.292 | idasanutlin -0.168 | alisertib 0.002 | [3] 0.069

PLXNB1 (UniProt O43157)
inactive: filanesib 0.076 | idasanutlin -0.17

POT1 (UniProt Q9NUX5)
inactive: filanesib 0.288 | alisertib 0.329 | gefitinib 0.063 | [3] 0.282

PLVAP (UniProt Q9BX97)
inactive: filanesib -0.078 | zotarolimus -0.424 | idasanutlin -0.11 | alisertib -0.092 | [2] 0.116 | gefitinib -0.011 | [3] 0.006 | lapatinib 0.036 | pictilisib 0.012

PPM1B isoform 2 (UniProt O75688)
inactive: alisertib -0.065 | [3] 0.034

POLQ (UniProt O75417)
inactive: alisertib 0.052 | gefitinib 0.016 | [3] 0.206 | pictilisib 0.225
